This experiment concerns the target Myc-tagged RSPH3 (mouse). Kind of experiment: co-IP; lysates of transfected HEK293T cells (Pierce IP Lysis Buffer); 2 ug anti-Myc or anti-FLAG antibody, Protein A/G agarose; western blot. A general note: A western blot detects proteins with antibodies after separation by electrophoresis.

Results are given in words; binding and its absence hold for the method and conditions named. Binding seen in cells or lysates may run through a third protein. Binding calls can cover weak binding; strength is not graded here. Sequences can lack the tags named with a protein.

B1: FLAG-tagged CFAP52 (cilia and flagella associated protein 52) (protein, UniProt Q5F201-1 1-620)
chain: MEEQVLPELDVAELELQAVIGFNGHVPNGLKCHPDQEHLIYPLGCTVLIQAINTNEQNFLHGHGNNVSCVTISKEGDYIASGQVTFMGFKADIILWDFKKRELIARLSLHKGKIEALAFSPNDLYLVSLGGPDDGSVVVWSIAKRDAICGSPAAGLNVGNATSVVFSRCRDEMFVTAGNGTIRVWELDLPNRKIWPTECQTGQMKRIVLSTGMADDDSFFYLGTTTGDILKMNPKTKLLADTGPVKDKFSLGVSALRCLKMGGLLVGSGAGLLIFCKSPSYKPIKKVQLQGGITSITLRGEGHQFFVGTEESHIYRVNFTDFKETLIATCHFEAVQDIVFPFGTAELFATCAKKDIRVWHTMSKRELLRITVPNMTCHGIDFMRDGKSIISAWDDGKIRAFAPESGRLMYTINSAHRIGVTAIATTSDCKRIISGGGEGEVRVWQVGCQTQKLEEALKEHKSSVSCIRVKKNNEECVTASTDGTCIIWDLVRLRRNQMILANTLFQCVCYHPEEFQIITSGTDRKIAYWEVFDGSVIRELEGSLSGSINGMDITQEGGHFVTGGHDHLVKVWDYNEGEVTHVGVGHSGNIMAMRISPGNQYIVSVSADGAILRWKYPFAS
For B1, the binding entry is “binds”.

The record behind these values is publication PMC10735225.
